Results deposited as PubChem BioAssay AID652243 (Drosophila RNAi Screening Center, 2013).

Assay: 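Knock-downs that decrease or increase androgen receptor reporter signal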 (primary screen)
Cell system: Drosophila S2R+ cells
Reagent: long dsRNA against Drosophila genes
Time to read-out: 72 h (48 h, then 24 h hormone)
Treatment: synthetic androgen R1881 at 10 nM for 24 h
Measurement: 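Per-well raw luminescence of the androgen-driven firefly reporter and of the Renilla control, two replicates each, without normalisation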
Reading the numbers: firefly reporter light: higher = more light from androgen-responsive reporter; Renilla control light: higher = more constitutive control signal (cell number, transfection)
Active means: 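Across duplicate plates, a knock-down whose log firefly/Renilla ratio shifted a set fold down or up from the GFP/LacZ control mean was a hit; the downward cut appears as both 1.5 and 3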
Calls: active = hit: reporter lowered or raised; inactive = no hit
The screen tested about 24,000 reagents; this is an unselected part of those with a known target gene and a result. In the full data, 246 (1%) are marked active. 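Plates not normalised; calls are printed but the firefly/Renilla ratio behind them is not deposited; fold cut for lowering reported inconsistently.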 Raw values are not corrected between plates. The numbers tell different reagents against one gene apart. A plus sign joins genes that one reagent is predicted to hit. Not given: the amount of reagent.

no.	gene	reagent	firefly reporter light, replicate 1	firefly reporter light, replicate 2	Renilla control light, replicate 1	Renilla control light, replicate 2	Outcome
1	eIF2gamma + Su(var)3-9	1	57367	92085	93513	2.33e5	inactive
2	eIF2gamma + Su(var)3-9	2	1.05e5	74115	7.12e5	8.51e5	inactive
3	eIF2gamma + Su(var)3-9	3	4.04e5	3.22e5	5.83e5	7.12e5	inactive
4	Rint1	1	1.06e6	5.19e5	1.46e6	9.56e5	inactive
5	Rint1	2	7.73e5	4.09e5	2.78e6	1.52e6	inactive
6	CG13771	1	1.39e5	1.76e5	1.41e6	1.49e6	inactive
7	MRP	1	8.04e5	9.06e5	1.58e6	2.14e6	inactive
8	CG31820	1	6.33e5	5.75e5	2.56e6	2.29e6	inactive
9	CG31820	2	1.43e6	1.09e6	2.29e6	1.82e6	inactive
10	Ufsp2	1	1.02e5	38695	9.90e5	3.72e5	inactive
11	mrt	1	1.21e5	1.39e5	2.19e6	3.11e6	inactive
12	mrt	2	6.21e5	3.55e5	1.14e6	7.92e5	inactive
13	CG13473	1	8.73e5	7.51e5	9.40e5	1.01e6	inactive
14	alpha-Cat	1	3.80e5	4.36e5	2.61e6	2.62e6	inactive
15	CG1582	1	1.29e5	1.03e5	9.02e5	7.84e5	inactive
16	Rae1	1	8.21e5	6.29e5	1.85e6	2.16e6	inactive
17	CG14324	1	1.38e5	88579	2.43e6	1.39e6	inactive
18	CG14324	2	8.23e5	6.46e5	7.30e5	7.82e5	inactive
19	CG5835	1	2.31e5	2.79e5	3.09e6	3.24e6	inactive
20	CG5835	2	2.37e5	4.35e5	6.60e5	7.63e5	inactive
21	Schip1	1	2.73e5	3.01e5	1.63e6	1.15e6	inactive
22	Schip1	2	7.02e5	9.16e5	1.20e6	1.25e6	inactive
23	Uch-L5	1	9.66e5	5.57e5	9.21e5	9.69e5	inactive
24	Uch-L5	2	2.17e5	2.38e5	5.34e5	8.80e5	inactive
25	csul	1	52185	64579	9.61e5	9.61e5	inactive
26	CG12909	1	2.52e5	1.68e5	1.32e6	1.07e6	inactive
27	CG12909	2	3.56e5	3.62e5	5.10e5	5.62e5	inactive
28	Acbp4	1	1.85e5	2.31e5	1.82e6	2.74e6	inactive
29	Acbp4	2	5.05e5	5.66e5	9.09e5	8.42e5	inactive
30	CG34054	1	6.32e5	6.52e5	1.26e6	1.61e6	inactive
31	CG13101	1	1.14e6	9.99e5	2.88e6	1.96e6	inactive
32	Moca-cyp	1	1.37e5	1.28e5	1.42e6	1.06e6	inactive
33	Moca-cyp	2	5.64e5	3.89e5	5.32e5	6.29e5	inactive
34	Jhbp13	1	2.10e5	2.97e5	1.32e6	1.72e6	inactive
35	mRpL44	1	37963	63351	3.00e5	2.94e5	inactive
36	mRpL44	2	2.82e5	2.89e5	7.58e5	6.93e5	inactive
37	CG9338	1	1.68e6	1.13e6	3.70e6	2.95e6	inactive
38	CG9338	2	1.10e6	5.91e5	1.13e6	1.33e6	inactive
39	Acsx2	1	1.83e5	3.57e5	2.57e6	3.24e6	inactive
40	CG6454	1	57061	1.11e5	6.59e5	7.21e5	inactive
41	CG6454	2	1.06e6	9.57e5	1.05e6	1.08e6	inactive
42	CG3009	1	78890	51239	6.24e5	5.94e5	inactive
43	CG3009	2	4.42e5	4.99e5	1.28e6	1.48e6	inactive
44	CG42850 (retired record)	1	5.75e5	4.33e5	3.14e6	3.56e6	inactive

Continued; the last 5 above are carried over.
no.	gene	reagent	firefly reporter light, replicate 1	firefly reporter light, replicate 2	Renilla control light, replicate 1	Renilla control light, replicate 2	Outcome
40	CG6454	1	57061	1.11e5	6.59e5	7.21e5	inactive
41	CG6454	2	1.06e6	9.57e5	1.05e6	1.08e6	inactive
42	CG3009	1	78890	51239	6.24e5	5.94e5	inactive
43	CG3009	2	4.42e5	4.99e5	1.28e6	1.48e6	inactive
44	CG42850 (retired record)	1	5.75e5	4.33e5	3.14e6	3.56e6	inactive
45	Drl-2	1	73248	1.01e5	3.71e5	4.00e5	inactive
46	Drl-2	2	5.33e5	2.93e5	2.17e6	2.18e6	inactive
47	Drl-2	3	3.52e5	2.57e5	1.92e6	1.94e6	inactive
48	Drl-2	4					inactive
49	Drl-2	5					inactive
50	BtbVII	1	12960	10267	4.38e5	4.71e5	inactive
51	BtbVII	2	8.31e5	4.49e5	1.49e6	9.96e5	inactive
52	BtbVII	3	1.08e6	1.14e6	6.83e5	7.19e5	inactive
53	CG32425	1	41053	27903	5.47e5	4.26e5	inactive
54	RpL22-like	1	3.03e5	2.88e5	2.40e6	1.81e6	inactive
55	CG5003	1	1.10e5	64760	4.00e5	6.39e5	inactive
56	CG5003	2	1.93e5	1.50e5	3.81e5	3.28e5	inactive
57	CG31102	1	2.86e5	2.98e5	3.32e6	2.97e6	inactive
58	CG31102	2	3.03e5	3.33e5	6.81e5	7.11e5	inactive
59	CG14464	1	60248	1.28e5	8.33e5	9.69e5	inactive
60	CG42346	1	6.05e5	5.12e5	1.83e6	1.62e6	inactive
61	CG42346	2	7.85e5	7.62e5	1.81e6	1.94e6	inactive
62	MESK2	1	2.86e5	2.75e5	2.05e6	1.56e6	inactive
63	MESK2	2	2.02e5	4.21e5	8.81e5	1.21e6	inactive
64	park	1	45874	30384	3.45e5	3.49e5	inactive
65	Gcn5	1	1.32e6	8.45e5	1.20e6	9.18e5	inactive
66	Gcn5	2	4.87e5	3.03e5	4.68e5	2.62e5	inactive
67	CG6441	1	1.50e5	1.80e5	1.40e6	1.07e6	inactive
68	ebd1	1	7.90e5	6.96e5	1.01e6	6.22e5	inactive
69	ebd1	2	3.98e5	4.13e5	6.64e5	6.64e5	inactive
70	Nt5a	1	6.81e5	1.17e6	1.68e6	2.40e6	inactive
71	lncRNA:CR34046	1	2.39e5	5.06e5	1.77e5	3.44e5	inactive
72	lncRNA:CR34046	2	5.68e5	4.09e5	1.36e6	1.43e6	inactive
73	sphinx2	1	5.85e5	5.35e5	2.22e6	2.47e6	inactive
74	sphinx2	2	8.10e5	8.00e5	6.02e5	7.86e5	inactive
